Measurements reported in PubChem BioAssay AID743121 (NCATS, 2013)

- Test: 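Knock-downs that sensitise breast cancer cells to camptothecin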 (primary screen)
- Cells: MDA-MB-231 cells, a human breast cancer line
- Knock-down reagent: single siRNA against human genes, 20 nM siRNA (0.8 pmol per well)
- Timing: 120 h (drug added 48 h after transfection, read 72 h later)
- Challenge: camptothecin 20 nM (about EC30) for 72 h; vehicle 0.1% DMSO in parallel plates
- Read-out: 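CellTiter-Glo ATP signal, scaled to control siRNA as percent viability; sensitisation given as log2 of untreated divided by camptothecin-treated viability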
- Direction: log2 vehicle/camptothecin viability: higher = stronger sensitisation to camptothecin
- Hit rule: 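Active genes have an RSA gene-level p-value below 0.001, computed from the ratios of their separate siRNAs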
Here is one part, drawn at random, of about 26,000 reagents tested. In the full data, 167 (0.63%) got an active call. 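Calls are per gene from RSA p-values that are not deposited; an individual active-marked siRNA can sensitise only weakly.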 Reagents against one gene are numbered here. Not all columns of the deposit are shown.

| gene symbol | reagent no. | log2 vehicle/camptothecin viability | call |
| --- | --- | --- | --- |
| NECTIN3 (nectin cell adhesion molecule 3) | 1 | -0.184 | inactive |
| NECTIN3 (nectin cell adhesion molecule 3) | 2 | -0.153 | inactive |
| NECTIN3 (nectin cell adhesion molecule 3) | 3 | -0.289 | inactive |
| GNA12 (G protein subunit alpha 12) | 1 | -0.0771 | inactive |
| GNA12 (G protein subunit alpha 12) | 2 | 0.96 | inactive |
| GNA12 (G protein subunit alpha 12) | 3 | -0.386 | inactive |
| GNA12 (G protein subunit alpha 12) | 4 | -0.143 | inactive |
| ECE1 (endothelin converting enzyme 1) | 1 | -0.547 | inactive |
| ECE1 (endothelin converting enzyme 1) | 2 | 0.0122 | inactive |
| ECE1 (endothelin converting enzyme 1) | 3 | 0.051 | inactive |
| GPR149 (G protein-coupled receptor 149) | 1 | 0.152 | inactive |
| GPR149 (G protein-coupled receptor 149) | 2 | 0.00464 | inactive |
| GPR149 (G protein-coupled receptor 149) | 3 | -0.342 | inactive |
| GPR149 (G protein-coupled receptor 149) | 4 | -0.00373 | inactive |
| P4HA1 (prolyl 4-hydroxylase subunit alpha 1) | 1 | 0.231 | inactive |
| P4HA1 (prolyl 4-hydroxylase subunit alpha 1) | 2 | -0.342 | inactive |
| P4HA1 (prolyl 4-hydroxylase subunit alpha 1) | 3 | -0.485 | inactive |
| P4HA1 (prolyl 4-hydroxylase subunit alpha 1) | 4 | -0.246 | inactive |
| COL10A1 (collagen type X alpha 1 chain) | 1 | -0.356 | inactive |
| COL10A1 (collagen type X alpha 1 chain) | 2 | -0.508 | inactive |
| COL10A1 (collagen type X alpha 1 chain) | 3 | -0.285 | inactive |
| CA5A (carbonic anhydrase 5A) | 1 | -0.21 | inactive |
| CA5A (carbonic anhydrase 5A) | 2 | 0.0611 | inactive |
| CA5A (carbonic anhydrase 5A) | 3 | -0.177 | inactive |
| CA5A (carbonic anhydrase 5A) | 4 | -0.355 | inactive |
| CD9 (CD9 molecule) | 1 | -0.337 | inactive |
| CD9 (CD9 molecule) | 2 | -0.231 | inactive |
| CD9 (CD9 molecule) | 3 | -0.418 | inactive |
| OLFM1 (olfactomedin 1) | 1 | 0.466 | inactive |
| OLFM1 (olfactomedin 1) | 2 | 0.184 | inactive |
| OLFM1 (olfactomedin 1) | 3 | -0.134 | inactive |
| OLFM1 (olfactomedin 1) | 4 | -0.322 | inactive |
| DVL2 (dishevelled segment polarity protein 2) | 1 | -0.722 | inactive |
| DVL2 (dishevelled segment polarity protein 2) | 2 | -0.274 | inactive |
| DVL2 (dishevelled segment polarity protein 2) | 3 | -0.254 | inactive |
| DVL2 (dishevelled segment polarity protein 2) | 4 | -0.365 | inactive |
| CD55 (CD55 molecule (Cromer blood group)) | 1 | -0.265 | inactive |
| CD55 (CD55 molecule (Cromer blood group)) | 2 | 0.0624 | inactive |
| CD55 (CD55 molecule (Cromer blood group)) | 3 | -0.233 | inactive |
| C9 (complement C9) | 1 | -0.692 | inactive |
| C9 (complement C9) | 2 | -0.175 | inactive |
| C9 (complement C9) | 3 | -0.0248 | inactive |
| C9 (complement C9) | 4 | -0.631 | inactive |
| ETV7 (ETS variant transcription factor 7) | 1 | -0.0634 | inactive |
| ETV7 (ETS variant transcription factor 7) | 2 | -0.188 | inactive |
| ETV7 (ETS variant transcription factor 7) | 3 | -0.0982 | inactive |
| ETV7 (ETS variant transcription factor 7) | 4 | -0.184 | inactive |

Entries above whose gene name begins with N or n (3):
| gene symbol | reagent no. | log2 vehicle/camptothecin viability | call |
| --- | --- | --- | --- |
| NECTIN3 (nectin cell adhesion molecule 3) | 1 | -0.184 | inactive |
| NECTIN3 (nectin cell adhesion molecule 3) | 2 | -0.153 | inactive |
| NECTIN3 (nectin cell adhesion molecule 3) | 3 | -0.289 | inactive |
